Measurements: PMC6131142
These are yes or no findings as the source states them, for the method shown. Some results given as binding are weak or reduced against the parent protein; the word gives no strength.

T1: … (IND) transcription factor of Arabidopsis thaliana (Arabidopsis thaliana) (UniProt O81313)
T1 sequence: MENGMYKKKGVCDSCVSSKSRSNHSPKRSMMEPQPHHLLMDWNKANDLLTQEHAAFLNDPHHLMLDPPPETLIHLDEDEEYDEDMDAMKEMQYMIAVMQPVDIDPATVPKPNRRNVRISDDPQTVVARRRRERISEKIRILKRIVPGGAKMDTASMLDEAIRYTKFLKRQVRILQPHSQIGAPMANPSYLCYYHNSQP


Biological target: T1, … (IND) transcription factor of Arabidopsis thaliana (Arabidopsis thaliana)
Assay: two-hybrid; GAL4 system (pGADT7 and pGBKT7), yeast AH109, co-transformation, 28 °C, growth on selective YSD medium -W-L-H-A, no IAA

binding	Binder
binds	ETT-specific domain (ES domain) of ETTIN (domain or fragment, UniProt O23661 392-608) SISNSGSFVTTGPKRSRIGFSSGKPDIPVSEGIRATDFEESLRFQRVLQGQEIFPGFINTCSDGGAGARRGRFKGTEFGDSYGFHKVLQGQETVPAYSITDHRQQHGLSQRNIWCGPFQNFSTRILPPSVSSSPSSVLLTNSNSPNGRLEDHHGGSGRCRLFGFPLTDETTAVASATAVPCVEGNSMKGASAVQSNHHHSQGRDIYAMRDMLLDIAL
binds	ETT_388-594 (domain or fragment, UniProt O23661 388-594) EPSGSISNSGSFVTTGPKRSRIGFSSGKPDIPVSEGIRATDFEESLRFQRVLQGQEIFPGFINTCSDGGAGARRGRFKGTEFGDSYGFHKVLQGQETVPAYSITDHRQQHGLSQRNIWCGPFQNFSTRILPPSVSSSPSSVLLTNSNSPNGRLEDHHGGSGRCRLFGFPLTDETTAVASATAVPCVEGNSMKGASAVQSNHHHSQGR
